PubChem BioAssay AID652243 | Drosophila RNAi Screening Center – 2013

Purpose: 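Knock-downs that decrease or increase androgen receptor reporter signal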 (primary screen)
Cell system: Drosophila S2R+ cells
Reagents: long dsRNA against Drosophila genes
Time to read-out: 72 h (48 h, then 24 h hormone)
Challenge: synthetic androgen R1881 at 10 nM for 24 h
Measured: 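Firefly light from an androgen-responsive reporter and Renilla control light per well, raw and unnormalised, for each of two replicates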
Scale: firefly reporter light: higher = more light from androgen-responsive reporter; Renilla control light: higher = more constitutive control signal (cell number, transfection)
Rule for the call: 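Hit when the log firefly-to-Renilla ratio dropped or increased by a fixed fold versus the mean of GFP or LacZ controls across duplicate plates; lowering cut given as 1.5 and as 3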
Meaning of the calls: active = hit: reporter lowered or raised; inactive = no hit
The screen tested about 24,000 reagents; this is an unselected part of those with a known target gene and a result. Over the whole deposit, 246 (1%) were called active. 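Plates not normalised; calls are printed but the firefly/Renilla ratio behind them is not deposited; fold cut for lowering reported inconsistently.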 Raw values are not corrected between plates. Reagents against one gene are numbered here. No sequences are given here. The record does not give: the amount of reagent.

| target gene | dsRNA no. | firefly reporter light, replicate 1 | firefly reporter light, replicate 2 | Renilla control light, replicate 1 | Renilla control light, replicate 2 | activity call |
| --- | --- | --- | --- | --- | --- | --- |
| CG3356 | 1 | 8.39e5 | 6.97e5 | 1.13e6 | 1.14e6 | inactive |
| CG3356 | 2 | 3.97e5 | 2.75e5 | 9.96e5 | 7.94e5 | inactive |
| Arl1 | 1 | 1.81e5 | 1.77e5 | 2.27e6 | 2.13e6 | inactive |
| AGO1 | 1 | 7.90e5 | 6.37e5 | 1.30e6 | 1.31e6 | inactive |
| AGO1 | 2 | 3.16e5 | 3.04e5 | 1.29e6 | 1.27e6 | inactive |
| Hipk | 1 | 48096 | 55885 | 2.97e5 | 3.37e5 | active |
| Hipk | 2 | 6.02e5 | 5.60e5 | 1.49e6 | 1.73e6 | inactive |
| Hipk | 3 | – | – | – | – | inactive |
| Hipk | 4 | – | – | – | – | inactive |
| Pp1alpha-96A | 1 | 2.68e5 | 2.72e5 | 3.31e6 | 3.08e6 | inactive |
| Pp1alpha-96A | 2 | 9.72e5 | 8.98e5 | 2.31e6 | 1.92e6 | inactive |
| Pp1alpha-96A | 3 | 6.99e5 | 5.30e5 | 5.63e5 | 3.46e5 | inactive |
| achi | 1 | 3.57e5 | 2.44e5 | 1.70e6 | 1.47e6 | inactive |
| achi | 2 | 9.57e5 | 1.09e6 | 1.34e6 | 1.30e6 | inactive |
| ppk30 | 1 | 1.34e5 | 1.26e5 | 1.62e6 | 2.22e6 | inactive |

Called active (from the list above):
| target gene | dsRNA no. | firefly reporter light, replicate 1 | firefly reporter light, replicate 2 | Renilla control light, replicate 1 | Renilla control light, replicate 2 | activity call |
| --- | --- | --- | --- | --- | --- | --- |
| Hipk | 1 | 48096 | 55885 | 2.97e5 | 3.37e5 | active |

Additional reagents follow:
| target gene | dsRNA no. | firefly reporter light, replicate 1 | firefly reporter light, replicate 2 | Renilla control light, replicate 1 | Renilla control light, replicate 2 | activity call |
| --- | --- | --- | --- | --- | --- | --- |
| RpL19 | 1 | 5.99e5 | 5.61e5 | 8.56e5 | 9.59e5 | inactive |
| RpL19 | 2 | 4.18e5 | 6.64e5 | 5.58e5 | 8.95e5 | inactive |
| CG40485 | 1 | 8.18e5 | 8.11e5 | 1.41e6 | 1.63e6 | inactive |
| Boot | 1 | 3.44e5 | 3.79e5 | 1.27e6 | 1.34e6 | inactive |
| CG6066 | 1 | 2.09e5 | 1.77e5 | 2.93e6 | 2.81e6 | inactive |
| CG6066 | 2 | 7.11e5 | 5.39e5 | 2.26e6 | 2.04e6 | inactive |
| CG6066 | 3 | 1.04e6 | 4.86e5 | 3.04e6 | 1.36e6 | inactive |
| unc-104 | 1 | 1.31e5 | 98021 | 2.36e6 | 2.36e6 | inactive |
| retinin | 1 | 2.12e5 | 1.56e5 | 1.97e6 | 1.70e6 | inactive |
| retinin | 2 | 4.94e5 | 2.17e5 | 1.33e6 | 2.86e5 | inactive |
| CCT8 | 1 | 5.95e5 | 5.82e5 | 1.22e6 | 9.16e5 | inactive |
| CCT8 | 2 | 3.24e5 | 3.20e5 | 8.81e5 | 7.28e5 | inactive |
| CG33679 | 1 | 7.96e5 | 7.34e5 | 2.13e6 | 1.96e6 | inactive |
| CG18636 | 1 | 1.47e5 | 1.29e5 | 1.72e6 | 1.61e6 | inactive |
| CG18636 | 2 | 9.96e5 | 1.33e6 | 1.02e6 | 6.93e5 | inactive |
| CG11723 | 1 | 9.78e5 | 9.58e5 | 3.78e6 | 1.95e6 | inactive |
| CG11723 | 2 | 7.78e5 | 9.05e5 | 8.50e5 | 8.09e5 | inactive |
| FMRFaR | 1 | 1.33e5 | 1.79e5 | 1.49e6 | 1.64e6 | inactive |
| CG31544 (retired record) | 1 | 1.51e5 | 1.07e5 | 3.27e5 | 3.92e5 | inactive |
| MFS12 | 1 | 7.96e5 | 3.73e5 | 1.98e6 | 1.06e6 | inactive |
| NimB1 | 1 | 1.18e6 | 1.14e6 | 2.41e6 | 2.28e6 | inactive |
| Ndae1 | 1 | 1.85e5 | 1.05e5 | 1.53e5 | 1.58e5 | inactive |
| Ndae1 | 2 | 8.53e5 | 1.42e6 | 1.80e6 | 2.88e6 | inactive |
| Cp110 | 1 | 63664 | 65709 | 4.54e5 | 4.43e5 | inactive |
| Cp110 | 2 | 5.59e5 | 4.51e5 | 2.27e6 | 2.92e6 | inactive |
